HELM strings list residues between dots; [ac] is acetyl, [am] amide, other brackets name non-standard units.
Experiment: general procedure: peptide synthesis; EDC/NHS, DIPEA
Conditions: conjugation step

Substance	conjugation yield
CH-PEG2-c(RGDfk) [C93H105N17O20S2]	80%
CH-3c(RGDyk) [C135H161N33O29S2]	22.3%
CH-c(RGDfk) [C81H83N15O14S2]	73%
CH-c(RADyk) [C82H85N15O15S2]	77%
PEPTIDE1{R.G.D.[dY].K}|CHEM1{[CH1055]}$PEPTIDE1,PEPTIDE1,1:R1-5:R2|PEPTIDE1,CHEM1,5:R3-1:R2$$$V2.0	81%

Reference: US20200023081A1 (The Board of Trustees of the Leland Stanford Junior …, priority 2018, published 2020)
